Results from publication PMC12680447.
Results are given in words; binding and its absence hold for the method and conditions named. In cells and extracts the contact can be indirect. Some entries that bind do so weakly or less than the wild type.

Protein sequences, listed by entry. Tags and fused reporters are not part of them. Residues count along the entry.
UniProt P09055, residues 21-798: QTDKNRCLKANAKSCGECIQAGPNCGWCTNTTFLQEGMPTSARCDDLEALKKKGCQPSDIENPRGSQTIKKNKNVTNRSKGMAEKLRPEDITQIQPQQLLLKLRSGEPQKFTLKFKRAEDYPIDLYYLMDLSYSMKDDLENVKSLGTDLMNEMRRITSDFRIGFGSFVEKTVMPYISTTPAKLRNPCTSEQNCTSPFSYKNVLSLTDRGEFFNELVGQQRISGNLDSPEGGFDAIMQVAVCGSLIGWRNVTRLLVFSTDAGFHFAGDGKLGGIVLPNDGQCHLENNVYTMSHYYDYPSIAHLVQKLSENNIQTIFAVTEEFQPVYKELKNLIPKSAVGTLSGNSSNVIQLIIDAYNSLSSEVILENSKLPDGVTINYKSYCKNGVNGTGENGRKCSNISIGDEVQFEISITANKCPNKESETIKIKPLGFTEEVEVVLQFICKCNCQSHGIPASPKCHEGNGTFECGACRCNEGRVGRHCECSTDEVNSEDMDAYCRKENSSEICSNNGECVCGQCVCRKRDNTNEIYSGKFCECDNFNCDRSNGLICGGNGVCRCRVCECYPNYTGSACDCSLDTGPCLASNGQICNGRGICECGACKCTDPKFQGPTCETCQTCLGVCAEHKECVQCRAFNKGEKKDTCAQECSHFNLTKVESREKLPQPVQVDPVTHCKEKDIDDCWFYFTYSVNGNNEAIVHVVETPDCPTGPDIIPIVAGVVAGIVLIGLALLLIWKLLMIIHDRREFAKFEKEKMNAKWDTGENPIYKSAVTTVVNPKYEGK

Target: T1, decorin (mouse (endogenous in NOR-10)) (UniProt P28654)
T1 sequence: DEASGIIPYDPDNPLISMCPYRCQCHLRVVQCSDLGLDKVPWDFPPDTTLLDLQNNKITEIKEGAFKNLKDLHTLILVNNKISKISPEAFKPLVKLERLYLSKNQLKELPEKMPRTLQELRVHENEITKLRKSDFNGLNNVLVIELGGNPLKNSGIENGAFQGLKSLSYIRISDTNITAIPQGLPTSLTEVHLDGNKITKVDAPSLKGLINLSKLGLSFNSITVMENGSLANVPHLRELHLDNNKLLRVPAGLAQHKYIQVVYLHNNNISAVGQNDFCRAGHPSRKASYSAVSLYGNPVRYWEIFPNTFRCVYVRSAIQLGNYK
Experiment: co-IP; lysate of NOR-10 cells (1 mg total protein) with 3 μg anti-decorin overnight at 4°C, Protein A/G magnetic beads, Western blotting with anti-ITGB1; input as positive control

binding: binds
Substance: integrin β1 (from UniProt P09055 21-798) (receptor)
